Results are given in words; binding and its absence hold for the method and conditions named. Binding seen in cells or lysates may run through a third protein. Some binding calls cover weakened binding; strength is not graded here.
Legend:
[1] = target: T1, biotinylated P7-Pen (SLAMF1-derived peptide P7 joined to penetratin); experiment: pull-down
T1 sequence (peptide, biotin covalently linked to the C-terminal lysine): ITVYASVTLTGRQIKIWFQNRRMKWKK

The chains behind the UniProt entries cited, without tags or fusion partners.
UniProt Q86XR7: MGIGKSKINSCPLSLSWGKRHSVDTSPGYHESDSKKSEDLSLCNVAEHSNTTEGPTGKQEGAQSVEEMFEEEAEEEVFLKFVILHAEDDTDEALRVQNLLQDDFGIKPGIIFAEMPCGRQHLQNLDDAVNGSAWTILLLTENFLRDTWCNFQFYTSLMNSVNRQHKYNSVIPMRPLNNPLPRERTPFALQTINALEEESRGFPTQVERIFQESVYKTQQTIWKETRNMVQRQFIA

[2] = target: T2, biotinylated Penetratin (control peptide); experiment: pull-down
T2 sequence (peptide, biotin covalently linked to the C-terminal lysine): RQIKIWFQNRRMKWKK

Molecule: TRAM (from UniProt Q86XR7 1-235)
- binding [1]: binds

B1: lysine deacetylase ABHD14B (enzyme, UniProt Q96IU4 1-210)
chain: MAASVEQREGTIQVQGQALFFREALPGSGQARFSVLLLHGIRFSSETWQNLGTLHRLAQAGYRAVAIDLPGLGHSKEAAAPAPIGELAPGSFLAAVVDALELGPPVVISPSLSGMYSLPFLTAPGSQLPGFVPVAPICTDKINAANYASVKTPALIVYGDQDPMGQTSFEHLKQLPNHRVLIMKGAGHPCYLDKPEEWHTGLLDFLQGLQ
- binding [1]: binds
- binding [2]: no binding
